Test results from the supplement of paper PMC4604168 (melanoma cell lines).
This is one part of the list. Single values are uncertain, as repeats are few or missing.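 Imaging used 1,536-well plates; nuclei positive for cleaved PARP by antibody were divided by total DNA-stained nuclei to yield the apoptosis fraction. Doses for screening kept most cells viable, and cell lines differ markedly in resting and induced cleaved-PARP levels.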

Legend:
Test in all cases: cleaved PARP positive nuclei fraction relative to DMSO control; melanoma cells; higher = more apoptosis
Settings in all cases: library dose: low library concentration; 72 h
[1] = system: WM115
[2] = system: WM1716
[3] = system: WM1745
[4] = system: WM3526
[5] = system: WM3619
[6] = system: WM451Lu

Row | SMILES | cleaved PARP positive nuclei fraction [1] | cleaved PARP positive nuclei fraction [2] | cleaved PARP positive nuclei fraction [3] | cleaved PARP positive nuclei fraction [4] | cleaved PARP positive nuclei fraction [5] | cleaved PARP positive nuclei fraction [6]
1 | COC(=O)c1sccc1S(=O)(=O)Nc1ccc(Nc2ccccc2)cc1OC + COc1cc(N2CCC(N3CCN(C)CC3)CC2)ccc1Nc1ncc(Cl)c(Nc2ccccc2S(=O)(=O)C(C)C)n1 [NVP-TAE684] (first compound 1 µM, partner dose 0.08 µM) | 148% | 65.9% | 115% | 65.1% | 75.5% | 53%
2 | COc1ccc(-c2ccc3c(N4CCOCC4)nc(N4C[C@@H](C)O[C@@H](C)C4)nc3n2)cc1CO + COc1ccc(COc2ccc(Cc3cnc(N)nc3N)cc2OC)cc1 [GW2580] (first compound 0.02 µM, partner dose 1 µM) | 49.8% | 67.9% | 106% | 384% | 94.9% | 92.2%
3 | O=C(Nc1ccccc1)c1cc([N+](=O)[O-])ccc1Cl + COc1cc(N2CCC(N3CCN(C)CC3)CC2)ccc1Nc1ncc(Cl)c(Nc2ccccc2S(=O)(=O)C(C)C)n1 [NVP-TAE684] (first compound 2 µM, partner dose 0.08 µM) | 93.9% | 204% | 241% | 72.2% | 85% | 62.5%
4 | NCC(=O)Nc1ccc(-n2nc(C(F)(F)F)cc2-c2ccc3c(ccc4ccccc43)c2)cc1 + COc1ccc2c(c1)CCC1C2CCC2(C)C(NCCCCCCN3C(=O)C=CC3=O)CCC12 [U73122] (first compound 1 µM, partner dose 0.4 µM) | 157% | 91.6% | 105% | 143% | 79.3% | 74.4%
5 | COc1cc2c(Oc3ccc4[nH]c(C)cc4c3F)ncnc2cc1OCCCN1CCCC1 [cediranib] + CCc1ccc(CCOc2ccc(CC3SC(=O)NC3=O)cc2)nc1 [pioglitazone] (first compound 0.4 µM, partner dose 2 µM) | 68% | 90.8% | 121% | 61.4% | 104% | 57%
6 | Oc1cc(-c2nc(-c3ccccc3)[nH]c2-c2ccncc2)ccc1Cl + O=c1cc(-c2cccc3c2Sc2ccccc2S3)oc(N2CCOCC2)c1 [KU55933] (first compound 0.2 µM, partner dose 1 µM) | 195% | 33.9% | 113% | 95.6% | 84.1% | 364%
7 | COc1ccc(-c2ccc3c(N4CCOCC4)nc(N4C[C@@H](C)O[C@@H](C)C4)nc3n2)cc1CO + Cn1cc(/C=C2\C(=O)Nc3cccnc32)c2ccccc21 [GW441756] (first compound 0.02 µM, partner dose 0.4 µM) | 101% | 89.6% | 120% | 35.6% | 99% | 142%
8 | COc1cc2c(Oc3ccc4[nH]c(C)cc4c3F)ncnc2cc1OCCCN1CCCC1 [cediranib] + O=C1NC(=O)/C(=C/c2ccc(-c3ccc(F)cc3O)o2)S1 [AS252424] (first compound 0.4 µM, partner dose 1 µM) | 125% | 119% | 106% | 217% | 70.5% | 25.1%
9 | CCc1ccc(CCOc2ccc(CC3SC(=O)NC3=O)cc2)nc1 (configuration not stated) [pioglitazone] + O=C(Nc1ccccc1)c1cc([N+](=O)[O-])ccc1Cl [GW9662] (first compound 2 µM, partner dose 2 µM) | 53.5% | 19.9% | 209% | 66.3% | 101% | 162%
10 | O=C(Nc1ccccc1)c1cc([N+](=O)[O-])ccc1Cl + Cn1cc(/C=C2\C(=O)Nc3cccnc32)c2ccccc21 [GW441756] (first compound 2 µM, partner dose 0.4 µM) | 80.1% | 52.9% | 109% | 58.3% | 80.5% | 54.7%
11 | COc1ccc2c(c1)CCC1C2CCC2(C)C(NCCCCCCN3C(=O)C=CC3=O)CCC12 (configuration not stated) + COc1cc2ncnc(Nc3ccc(Oc4ccccc4)cc3)c2cc1OC [SrcI1] (first compound 0.4 µM, partner dose 2 µM) | 59.7% | 66.1% | 114% | 154% | 111% | 56.8%
12 | COc1cc(N2CCC(N3CCN(C)CC3)CC2)ccc1Nc1ncc(Cl)c(Nc2ccccc2S(=O)(=O)C(C)C)n1 + Cn1cc(/C=C2\C(=O)Nc3cccnc32)c2ccccc21 [GW441756] (first compound 0.08 µM, partner dose 0.4 µM) | 116% | 80.5% | 107% | 37.7% | 85.4% | 311%
13 | Oc1nc(-c2ccc(C(F)(F)F)cc2)nc2c1CSCC2 + COc1cc(N2CCC(N3CCN(C)CC3)CC2)ccc1Nc1ncc(Cl)c(Nc2ccccc2S(=O)(=O)C(C)C)n1 [NVP-TAE684] (first compound 2 µM, partner dose 0.08 µM) | 383% | 96.7% | 108% | 59% | 110% | 120%
14 | CN(C)S(=O)(=O)c1ccc2c(c1)/C(=C/c1cc3c([nH]1)CCCC3)C(=O)N2 + COc1cc2c(Oc3ccc4[nH]c(C)cc4c3F)ncnc2cc1OCCCN1CCCC1 [cediranib] (first compound 0.4 µM, partner dose 0.4 µM) | 80.1% | 99.5% | 93.7% | 123% | 112% | 84.8%
15 | O=C(Nc1ccccc1)c1cc([N+](=O)[O-])ccc1Cl + O=C(O)C(=O)Nc1sc2c(c1C(=O)O)CCNC2 [TCS401] (first compound 2 µM, partner dose 1.66667 µM) | 34.3% | 57.7% | 111% | 141% | 87.6% | 44%
16 | COC(=O)c1sccc1S(=O)(=O)Nc1ccc(Nc2ccccc2)cc1OC + O=C1NC(=O)/C(=C/c2ccc(-c3ccc(F)cc3O)o2)S1 [AS252424] (first compound 1 µM, partner dose 1 µM) | 161% | 124% | 126% | 79.1% | 99.7% | 240%
17 | O=C1NC(=O)/C(=C/c2ccc(-c3ccc(F)cc3O)o2)S1 + Oc1nc(-c2ccc(C(F)(F)F)cc2)nc2c1CSCC2 [XAV939] (first compound 1 µM, partner dose 2 µM) | 155% | 172% | 111% | 78% | 91.3% | 88.9%
18 | COc1ccc(-c2ccc3c(N4CCOCC4)nc(N4C[C@@H](C)O[C@@H](C)C4)nc3n2)cc1CO + O=S(=O)(c1ccccc1)N(CC(F)(F)F)c1ccc(C(O)(C(F)(F)F)C(F)(F)F)cc1 [T0901317] (first compound 0.02 µM, partner dose 1.4 µM) | 57.4% | 82.8% | 131% | 164% | 104% | 141%
19 | O=C(O)c1ccc(-c2c[nH]c3ncc(-c4ccccc4)cc23)cc1C1CCCC1 + Oc1nc(-c2ccc(C(F)(F)F)cc2)nc2c1CSCC2 [XAV939] (first compound 0.16 µM, partner dose 2 µM) | 212% | 155% | 346% | 161% | 212% | 62.2%
20 | COc1ccc2c(c1)CCC1C2CCC2(C)C(NCCCCCCN3C(=O)C=CC3=O)CCC12 (configuration not stated) + Oc1cc(-c2nc(-c3ccccc3)[nH]c2-c2ccncc2)ccc1Cl [L779450] (first compound 0.4 µM, partner dose 0.2 µM) | 155% | 57.1% | 296% | 80% | 117% | 56.1%
21 | COc1cc(N2CCC(N3CCN(C)CC3)CC2)ccc1Nc1ncc(Cl)c(Nc2ccccc2S(=O)(=O)C(C)C)n1 + O=c1cc(-c2cccc3c2Sc2ccccc2S3)oc(N2CCOCC2)c1 [KU55933] (first compound 0.08 µM, partner dose 1 µM) | 123% | 61.4% | 116% | 55.8% | 95.2% | 117%
22 | Cc1cc([N+](=O)[O-])ccc1NS(=O)(=O)c1cc(Cl)ccc1Cl + COc1cc(N2CCC(N3CCN(C)CC3)CC2)ccc1Nc1ncc(Cl)c(Nc2ccccc2S(=O)(=O)C(C)C)n1 [NVP-TAE684] (first compound 1 µM, partner dose 0.08 µM) | 148% | 136% | 209% | 58.9% | 77.2% | 65.9%
23 | CCN(CC)CCCCNc1ncc2cc(-c3cc(OC)cc(OC)c3)c(NC(=O)NC(C)(C)C)nc2n1 + O=S(=O)(c1ccccc1)N(CC(F)(F)F)c1ccc(C(O)(C(F)(F)F)C(F)(F)F)cc1 [T0901317] (first compound 0.1 µM, partner dose 1.4 µM) | 208% | 30% | 115% | 64.3% | 66.4% | 89.8%
24 | O=C(O)C(=O)Nc1sc2c(c1C(=O)O)CCNC2 + CCCCCCCCCCCC1=C(O)C(=O)C=C(O)C1=O [Embelin] (first compound 1.66667 µM, partner dose 1.2 µM) | 62.9% | 101% | 110% | 67% | 65.3% | 118%
25 | N#Cc1c(O)c2c(-c3ccc(-c4ccccc4O)cc3)csc2[nH]c1=O + Cn1cc(/C=C2\C(=O)Nc3cccnc32)c2ccccc21 [GW441756] (first compound 2 µM, partner dose 0.4 µM) | 70.9% | 146% | 102% | 74% | 65.8% | 73.7%
26 | O=C(O)c1ccc(-c2c[nH]c3ncc(-c4ccccc4)cc23)cc1C1CCCC1 + Oc1cc(-c2nc(-c3ccccc3)[nH]c2-c2ccncc2)ccc1Cl [L779450] (first compound 0.16 µM, partner dose 0.2 µM) | 286% | 92.5% | 108% | 107% | 80.2% | 214%
27 | CN(NC(=O)CC(=O)NN(C)C(=S)c1ccccc1)C(=S)c1ccccc1 + CC(C)CCN1c2nc(Nc3cc(F)c(O)c(F)c3)ncc2N(C)C(=O)C1C [BID1870] (first compound 0.006 µM, partner dose 0.2 µM) | 80.4% | 113% | 255% | 80.7% | 149% | 146%

Complete entries, quoted from the list:
O=C(Nc1ccccc1)c1cc([N+](=O)[O-])ccc1Cl + O=C(O)C(=O)Nc1sc2c(c1C(=O)O)CCNC2 [TCS401] (first compound 2 µM, partner dose 1.66667 µM) reads cleaved PARP positive nuclei fraction [1]: 34.3%; cleaved PARP positive nuclei fraction [2]: 57.7%; cleaved PARP positive nuclei fraction [3]: 111%; cleaved PARP positive nuclei fraction [4]: 141%; cleaved PARP positive nuclei fraction [5]: 87.6%; cleaved PARP positive nuclei fraction [6]: 44%
COc1cc(N2CCC(N3CCN(C)CC3)CC2)ccc1Nc1ncc(Cl)c(Nc2ccccc2S(=O)(=O)C(C)C)n1 + O=c1cc(-c2cccc3c2Sc2ccccc2S3)oc(N2CCOCC2)c1 [KU55933] (first compound 0.08 µM, partner dose 1 µM) reads cleaved PARP positive nuclei fraction [1]: 123%; cleaved PARP positive nuclei fraction [2]: 61.4%; cleaved PARP positive nuclei fraction [3]: 116%; cleaved PARP positive nuclei fraction [4]: 55.8%; cleaved PARP positive nuclei fraction [5]: 95.2%; cleaved PARP positive nuclei fraction [6]: 117%
